PubChem BioAssay AID2685 (National Center for Advancing Translational Sciences (NCATS), 2010)
Out of some 320,000 compounds screened, about 2,100 (0.66%) were called active. The shares of active, inactive and inconclusive entries below differ from those in the screen. Calls follow the shape of the dose curve; as a rule, active = well fitted inhibition curve with a large enough effect in the signal ratio, with a control signal flat (not every such curve was filed as active); inconclusive = small, poorly fitted or top-dose-only effect, or effect the other way, or a change in a side signal; inactive = flat fitted curve, though single readings scatter; the % refers to the signal ratio. Where the call is inconclusive, the potency comes from a doubtful curve fit.

assay: qHTS Assay for Lipid Storage Modulators in Drosophila S3 Cells; conditions: BODIPY lipid droplet fluorescence, 18-24 h, cells fed with added oleic acid; lipid storage change, negative = inhibition: at 46.1 µM (top of the series) unless noted
Summary of the method: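 Drosophila S3 cells got compounds at several concentrations plus oleic acid (400 uM solution). Laser-scanning cytometry with 488 nm excitation read lipid droplets at 500-530 nm and cells at 575-640 nm. Percent activity was relative to 20 uM Triacsin C.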
% is scaled to controls: 0 for no effect and ±100 for the full control effect; potency is read from the fitted curve at half-maximal effect.

Lipid storage change, negative = inhibition, inconclusive:
O=C1N(Cc2ccccc2)c2ccccc2C12OCCO2 21.4%, Cc1ccc(Cl)cc1N1CCN(C(=O)CCCn2c(=O)c3cccn3c3cccnc32)CC1 -175%, CC(=O)NC(Cc1ccccc1)C(=O)OCC(=O)c1ccc(Br)cc1 (configuration not stated) 22.2%, CCc1nnc(NS(=O)(=O)c2ccc(NC(=S)NC(=O)c3ccc(F)cc3)cc2)s1 25%, S=C(NCCNC(=S)Nc1ccccc1)Nc1ccccc1 56.9%, Cc1nc2cc(-c3cccc(F)c3)nn2c(C)c1CCC(=O)NC(C)c1ccc2c(c1)OCCO2 (configuration not stated) -3.06%, O=C(Nc1cccc(NC(=O)C2C3CC4OC(=O)C2C4C3)c1)c1ccccc1 (configuration not stated) -10.4%, CCOc1ccc(S(=O)(=O)N(CC(=O)NCc2ccncc2)c2ccc(C)cc2)cc1 20.6%, O=C(O)CC1C(=O)NCCN1C/C=C/c1ccccc1 (configuration not stated) -1.46%, COc1cccc(NC(=O)COC(=O)CC(NC(N)=O)c2ccc(Cl)cc2)c1 (configuration not stated) 36.4%, CNC(=O)NC(=O)CSc1ncc(C(F)(F)F)cc1Cl -4.12%, Cc1ccc(C)c(NC(=O)COC(=O)CCCN=C2NS(=O)(=O)c3ccccc32)c1 14.2%, COc1ccccc1-c1nc2ccccc2c(=O)n1O 17.8%, Cc1nc(CC(=O)O)c(-c2ccccc2)s1 -75.1%, C=C(C)c1cccc(C(C)(C)NC(=O)N2CCCCC2CC)c1 (configuration not stated) 0.681%, Cc1ccc(OCCOC(=O)c2nc3nccc(C)n3n2)cc1 18.6% [at 9.22 µM], CCOC(=O)N1CCC(NC(=O)c2cc(C(=O)Nc3ccc(F)cc3F)ccc2CO)CC1 -12.8%, COc1ccc(Br)cc1/C=N/NC(=O)C(c1ccncc1)N1CCOCC1 (configuration not stated) -10.6%, COc1ccccc1OCc1ccc(C(=O)N(C)C)o1 0.437%, COC(=O)c1c(C)[nH]c(C(=O)CN(C)CC(=O)Nc2cccc(F)c2)c1C -18.7%, CCN(CC)CCSc1nnc2c3cc(C)ccc3n(Cc3ccccc3)c2n1 16%, Cc1ccc(-n2[nH]c(C)c(CCC#N)c2=O)cc1 1.43%, Cc1ccc(NC(=O)c2ccc(C)cc2)cc1 58.1%, Cc1nc2c(C)cccc2cc1C(=O)N/N=C/c1ccc(N(C)C)cc1 139%, C(=C\c1nccc2c1[nH]c1ccccc12)/c1ccccc1 -18%, Cc1cccc(NC(=O)c2n[nH]c([N+](=O)[O-])c2Br)c1C 1.74%, COc1cccc(NC(=O)c2csc3c2CCCC3)c1 16.9%, Cc1cc(NC(=O)C2C3C(=O)N(Cc4ccc(Cl)cc4)C(C(=O)NC(C)(C)C)C34C=CC2(C)O4)no1 (configuration not stated) -21%, COc1cccc(N2CC(O)=C(c3ccccc3)C2=N)c1 -14.7%, CCC(=O)N1CCN=C1SCc1ccc(F)cc1 -9.84%, COc1ccc(NC(=O)CN(C)C(=O)CCCSc2nc3ccccc3[nH]2)cc1, COc1cccc(NC(=O)CN(C)CC(=O)Nc2ccc(C)cc2Cl)c1 -1.92%, Nc1ccc(C(=O)n2c3ccccc3c3ccccc32)cc1 -7.68%, CCCCCC(=O)N/N=C/c1ccc([N+](=O)[O-])o1 -22.9%, CCOC(=O)c1cc(OC(=O)c2ccccc2Br)n(-c2ccccc2)n1 -21.2%, CCCCCCC(=O)Nc1nc(C)c(-c2csc(Nc3ccccc3OC)n2)s1 -16.4%, O=C(CNc1ccc(Br)cc1)c1ccc(Br)s1 -14%, CC(=O)c1c(C)nc(-c2ccc3c(c2)OCO3)n1O 41.8%, CS(=O)(=O)N(CC(=O)Nc1ccc(CC#N)cc1)c1ccc(C23CC4CC(CC(C4)C2)C3)cc1 -132%, CCCCC(=O)Nc1ccc(C(=O)NNC(=S)NC(=O)c2ccccc2[N+](=O)[O-])cc1 17.5%, Cc1cccc(OCCCC(=O)Nc2nnc(C3CCCO3)s2)c1C (configuration not stated) 60.9%, O=C(Oc1ccc2c(c1)O/C(=C\c1ccncc1)C2=O)c1cccs1 -19.1%, CNc1nc(C)c(C(C)=O)cc1C#N -142%, COc1cc(CNc2nnnn2C)ccc1OCc1c(F)cccc1Cl -15.5%, CC(=O)N1CCC(C(=O)Nc2ccccc2)(N(Cc2ccccc2)C(=O)c2cccnc2)CC1 26.4%, COC(=O)C1=CNC=C(C(=O)OC)C1c1cccc2ccccc12 474%, CCN(CC)CCNC(=O)c1ccc(NC(=O)COc2ccc3c(c2)CCC3)cc1 -1.85%

Lipid storage change, negative = inhibition, inactive:
COc1ccc(-c2nnc(-c3ccc(Br)o3)o2)cc1OC 21.7%, CCn1cc(C(=O)NCC(OC)OC)c(=O)c2cc(S(=O)(=O)N3CCOCC3)ccc21 11.9%, CCOC(=O)C1CCN(C(=O)c2ccc(Oc3cc(Cl)cc(Cl)c3)o2)CC1 4.49%

Potency, inconclusive:
O=C(NCc1ccco1)c1c2c(nc3ccccc13)CCC2 5.17 µM [activator, single point], COc1ccc(C(=O)C2CCCN(C(=O)c3cnsn3)C2)c(C)c1 (configuration not stated) 9.2 µM [activator, single point], O=C(CCN1C(=O)/C(=C\C=C\c2ccccc2)SC1=S)Nc1ccc(C(=O)O)cc1 1.3 µM [falling, full curve], O=C(CCC1CCCC1)Nc1nnc(-c2ccc3c(c2)OCO3)s1 0.0065 µM [rising, full curve, poor fit], CCn1c(C(O)c2cc(OC)ccc2OC)nc2ccccc21 (configuration not stated) 3.26 µM [falling, partial curve, poor fit], O=C(COC(=O)c1ccc(O)cc1)Nc1ccc(OC(F)F)cc1 1.64 µM [activator, partial curve], COCCn1c(SCC(=O)N2CCCCCC2)nc2c([nH]c3ccccc32)c1=O 16.4 µM [falling, single point], Cc1cccc(NS(=O)(=O)c2cc(C(=O)NCCC3=CCCCC3)ccc2Cl)c1 6.51 µM [falling, single point], CC(CNC(=O)c1cccc(Br)c1)n1cncn1 (configuration not stated) 0.164 µM [activator, full curve, poor fit], NS(=O)(=O)c1ccc(NC(=O)CSc2nc3ccccc3nc2N2CCOCC2)cc1 6.51 µM [falling, full curve, poor fit], O=C1COc2ccc(S(=O)(=O)CCC(=O)N3CCN(c4cccc(Cl)c4)CC3)cc2N1 2.59 µM [activator, full curve, poor fit], O=C(NCCOc1ccccc1)c1cc2ccccc2o1 2.91 µM [activator, single point], CCOC(=O)c1ccc(S(=O)(=O)N2CCN(C(=O)C3CSC4(C)CCC(=O)N34)CC2)cc1 (configuration not stated) 3.26 µM [activator, partial curve, poor fit], O=C(CCNS(=O)(=O)c1ccccc1C(F)(F)F)N1CCCCCCC1 0.146 µM [falling, full curve, poor fit], CCOC(=O)NC(=O)CSc1nc2ccc(OCC)cc2[nH]1 29.1 µM [falling, single point], Cc1cccc2c(=O)cc(C)n(Cc3ccccc3)c12 0.731 µM [activator, full curve], Cc1nn(CC(=O)NC2CCC(C)CC2)c(C)c1[N+](=O)[O-] (configuration not stated) 4.11 µM [falling, single point], COc1cccc(CNC(=O)c2cccc(S(=O)(=O)N3CCN(c4ccc(F)cc4)CC3)c2)c1 7.31 µM [activator, partial curve], Cc1ccc(NC(=O)CSc2nc3nc(C)cc(C)c3c(=O)[nH]2)cc1 29.1 µM [rising, single point], COc1ccc(CNC(=O)C23CC4CC(CC(Br)(C4)C2)C3)cc1 3.26 µM [activator, partial curve], COC(=O)c1ccc(C(C(=O)NC2CCCCC2)N(Cc2ccccc2)C(=O)Cc2cccs2)cc1 (configuration not stated) 6.51 µM [falling, full curve, poor fit], N=c1c(S(=O)(=O)c2ccc(Cl)cc2)cc2c(=O)n3ccccc3nc2n1CCc1ccccc1 2.59 µM [falling, partial curve, poor fit], COC(=O)c1ccc(CN2C(=O)c3ccccc3S2(=O)=O)cc1 14.6 µM [activator, partial curve], CNC(=S)NCCc1ccccc1 0.0041 µM [falling, full curve, poor fit]

Potency, active:
CC(C)Cn1c(CCNC(=O)c2ccco2)nc2ccccc21 3.66 µM, Cc1cc(NS(=O)(=O)c2ccc(NC(=O)COc3ccc(Br)cc3)cc2)nc(C)n1 18.4 µM

outcome, inactive:
O=C(CCN1C(=O)C2C3C=CC(C3)C2C1=O)NC1CCCCC1 (configuration not stated) inactive [at 46.1 µM]
